To fix the notation:
B1: carbonic anhydrase IV (enzyme, UniProt P48284 18-281)
chain: EDSHWCYEIQAKEPNSHCSGPEQWTGDCKKNQQSPINIVTSKTKLNPSLTPFTFVGYDQKKKWEVKNNQHSVEMSLGEDIYIFGGDLPTQYKAIQLHLHWSEESNKGSEHSIDGKHFAMEMHVVHKKMTTGDKVQDSDSKDKIAVLAFMVEVGNEVNEGFQPLVEALSRLSKPFTNSTVSESCLQDMLPEKKKLSAYFRYQGSLTTPGCDETVIWTVFEEPIKIHKDQFLEFSKKLYYDQEQKLNMKDNVRPLQPLGNRQVFRS
B2: carbonic anhydrase I (enzyme, UniProt B0BNN3 1-261)
chain: MASADWGYDSKNGPDQWSKLYPIANGNNQSPIDIKTSEAKHDSSLKPVSVSYNPATAKEIVNVGHSFHVVFDDSSNQSVLKGGPLADSYRLTQFHFHWGNSNDHGSEHTVDGAKYSGELHLVHWNSAKYSSAAEAISKADGLAIIGVLMKVGPANPNLQKVLDALSSVKTKGKRAPFTNFDPSSLLPSSLDYWTYFGSLTHPPLHESVTWVICKESISLSPEQLAQLRGLLSSAEGEPAVPVLSNHRPPQPLKGRTVRASF

By UniProt entry, the sequences of proteins in these tests, tags left out.
UniProt P26431: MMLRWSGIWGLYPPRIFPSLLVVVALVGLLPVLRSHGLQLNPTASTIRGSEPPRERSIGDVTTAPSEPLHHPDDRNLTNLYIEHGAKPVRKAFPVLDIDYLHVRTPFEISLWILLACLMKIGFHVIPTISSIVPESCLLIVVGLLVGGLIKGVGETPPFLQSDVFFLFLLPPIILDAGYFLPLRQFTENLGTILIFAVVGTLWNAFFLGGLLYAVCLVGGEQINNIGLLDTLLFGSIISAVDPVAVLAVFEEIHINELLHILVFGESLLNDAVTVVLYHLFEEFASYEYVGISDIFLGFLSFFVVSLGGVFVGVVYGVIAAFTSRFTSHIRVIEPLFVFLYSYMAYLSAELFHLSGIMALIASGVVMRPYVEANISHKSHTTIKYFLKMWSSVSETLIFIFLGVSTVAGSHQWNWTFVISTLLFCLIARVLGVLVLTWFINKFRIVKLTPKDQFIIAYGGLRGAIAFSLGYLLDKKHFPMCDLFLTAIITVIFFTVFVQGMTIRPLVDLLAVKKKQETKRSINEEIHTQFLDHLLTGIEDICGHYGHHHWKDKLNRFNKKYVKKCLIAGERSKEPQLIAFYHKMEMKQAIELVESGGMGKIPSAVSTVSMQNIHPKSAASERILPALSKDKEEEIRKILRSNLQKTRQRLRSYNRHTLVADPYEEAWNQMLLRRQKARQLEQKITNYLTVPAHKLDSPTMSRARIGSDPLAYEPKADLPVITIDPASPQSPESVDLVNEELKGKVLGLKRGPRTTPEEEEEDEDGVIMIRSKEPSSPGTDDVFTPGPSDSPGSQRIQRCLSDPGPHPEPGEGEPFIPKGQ
UniProt P27139: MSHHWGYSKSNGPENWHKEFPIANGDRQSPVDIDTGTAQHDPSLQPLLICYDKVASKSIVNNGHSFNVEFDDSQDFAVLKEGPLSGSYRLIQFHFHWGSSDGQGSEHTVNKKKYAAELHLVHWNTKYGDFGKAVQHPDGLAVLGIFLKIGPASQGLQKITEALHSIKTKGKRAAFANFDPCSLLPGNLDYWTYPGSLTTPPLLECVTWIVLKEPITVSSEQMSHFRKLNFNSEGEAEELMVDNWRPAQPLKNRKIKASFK

No constants are given. Whether binding was seen depends on the method and setting. Binding seen in cells or lysates may run through a third protein. Some binding calls cover weakened binding; strength is not graded here.

The experiment deals with Na-H exchanger-1 (rat (endogenous in colon)) (UniProt P26431). The experiment is described as follows: co-IP; uninflamed (control) rat colon tissue lysates solubilized with triton X-100; NHE-1-specific antibodies 1:100, Protein-G sepharose beads; blots with CA isoform-selective antibodies.
Regarding “carbonic anhydrase II (from UniProt P27139 1-260) (enzyme)”, the binding entry is on record as “binds”. With B1, the binding entry is listed as “no binding”.

In the case of B2, the binding result is “binds”.

(Values after article PMC6921068.)
